According to paper doi:10.1101/2021.02.26.432832:
Residue numbers refer to the chain shown, from its start. No constants are given. Whether binding was seen depends on the method and setting. Some entries that bind do so weakly or less than the wild type. Sequences can lack the tags named with a protein.

Chains of the proteins cited; added tags and fusions are not shown.
UniProt P38144: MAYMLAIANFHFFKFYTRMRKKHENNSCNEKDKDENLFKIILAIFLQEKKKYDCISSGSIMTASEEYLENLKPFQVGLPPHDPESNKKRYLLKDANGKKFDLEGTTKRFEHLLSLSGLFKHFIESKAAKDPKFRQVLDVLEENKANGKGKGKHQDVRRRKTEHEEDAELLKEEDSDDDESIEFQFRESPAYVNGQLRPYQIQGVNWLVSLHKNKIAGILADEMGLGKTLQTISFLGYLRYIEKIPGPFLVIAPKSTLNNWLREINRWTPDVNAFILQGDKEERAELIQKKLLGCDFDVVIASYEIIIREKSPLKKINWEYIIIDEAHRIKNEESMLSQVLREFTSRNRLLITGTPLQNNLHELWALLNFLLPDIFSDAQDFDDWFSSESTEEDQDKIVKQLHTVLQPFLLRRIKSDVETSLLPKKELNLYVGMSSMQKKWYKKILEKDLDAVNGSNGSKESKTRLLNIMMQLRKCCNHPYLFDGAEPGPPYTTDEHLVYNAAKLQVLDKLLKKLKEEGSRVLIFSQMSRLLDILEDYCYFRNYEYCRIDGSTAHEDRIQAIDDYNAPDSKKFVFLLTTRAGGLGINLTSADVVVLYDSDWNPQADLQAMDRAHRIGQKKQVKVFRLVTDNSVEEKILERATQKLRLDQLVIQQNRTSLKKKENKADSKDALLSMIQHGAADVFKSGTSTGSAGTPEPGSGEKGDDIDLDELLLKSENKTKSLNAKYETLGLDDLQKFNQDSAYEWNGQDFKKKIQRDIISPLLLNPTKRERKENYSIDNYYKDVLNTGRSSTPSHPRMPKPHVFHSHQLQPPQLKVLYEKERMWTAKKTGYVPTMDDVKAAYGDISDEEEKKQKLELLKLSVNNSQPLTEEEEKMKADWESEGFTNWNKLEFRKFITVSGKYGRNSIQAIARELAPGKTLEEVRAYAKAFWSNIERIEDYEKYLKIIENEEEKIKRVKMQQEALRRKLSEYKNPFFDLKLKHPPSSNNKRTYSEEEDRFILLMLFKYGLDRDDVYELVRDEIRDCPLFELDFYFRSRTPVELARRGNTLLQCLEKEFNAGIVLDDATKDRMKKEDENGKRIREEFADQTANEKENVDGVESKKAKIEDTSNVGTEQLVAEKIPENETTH

Columns and labels:
Test in all cases: tandem affinity purification
[1] = molecular target: T1, TAP-tagged Ioc4 DNA-binding mutant [change] [change], in yeast (S. cerevisiae) (UniProt Q04213)
T1 sequence: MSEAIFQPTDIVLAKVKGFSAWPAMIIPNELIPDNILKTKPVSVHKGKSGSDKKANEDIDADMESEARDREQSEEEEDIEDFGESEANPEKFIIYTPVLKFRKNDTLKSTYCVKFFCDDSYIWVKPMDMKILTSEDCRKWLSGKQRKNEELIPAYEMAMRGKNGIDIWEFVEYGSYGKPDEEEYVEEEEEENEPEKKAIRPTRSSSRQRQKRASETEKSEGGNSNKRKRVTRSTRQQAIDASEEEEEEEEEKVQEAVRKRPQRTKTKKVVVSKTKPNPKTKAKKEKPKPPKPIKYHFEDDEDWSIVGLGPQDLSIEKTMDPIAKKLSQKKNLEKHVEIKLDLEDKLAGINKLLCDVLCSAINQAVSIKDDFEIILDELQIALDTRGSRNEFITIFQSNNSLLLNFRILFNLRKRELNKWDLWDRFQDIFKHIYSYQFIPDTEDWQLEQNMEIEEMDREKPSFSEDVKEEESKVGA

[2] = molecular target: T2, TAP-tagged Ioc4 aromatic cage mutant [change], in yeast (S. cerevisiae) (UniProt Q04213)
T2 sequence: T1 sequence with W22A, E149K, E150K

[3] = molecular target: T3, TAP-tagged Ioc4 with its PWWP domain deleted, in yeast (S. cerevisiae) (UniProt Q04213)
T3 sequence: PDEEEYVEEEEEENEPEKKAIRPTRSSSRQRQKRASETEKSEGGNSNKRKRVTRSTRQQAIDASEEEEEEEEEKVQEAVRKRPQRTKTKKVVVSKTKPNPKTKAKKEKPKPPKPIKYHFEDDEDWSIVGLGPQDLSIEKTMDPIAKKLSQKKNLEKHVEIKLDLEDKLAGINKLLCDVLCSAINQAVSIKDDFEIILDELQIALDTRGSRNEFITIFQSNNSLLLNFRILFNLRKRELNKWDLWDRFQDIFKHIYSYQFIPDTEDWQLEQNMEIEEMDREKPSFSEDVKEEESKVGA

[4] = molecular target: T4, TAP-tagged Ioc4 with the insertion motif deleted, in yeast (S. cerevisiae) (UniProt Q04213)
T4 sequence: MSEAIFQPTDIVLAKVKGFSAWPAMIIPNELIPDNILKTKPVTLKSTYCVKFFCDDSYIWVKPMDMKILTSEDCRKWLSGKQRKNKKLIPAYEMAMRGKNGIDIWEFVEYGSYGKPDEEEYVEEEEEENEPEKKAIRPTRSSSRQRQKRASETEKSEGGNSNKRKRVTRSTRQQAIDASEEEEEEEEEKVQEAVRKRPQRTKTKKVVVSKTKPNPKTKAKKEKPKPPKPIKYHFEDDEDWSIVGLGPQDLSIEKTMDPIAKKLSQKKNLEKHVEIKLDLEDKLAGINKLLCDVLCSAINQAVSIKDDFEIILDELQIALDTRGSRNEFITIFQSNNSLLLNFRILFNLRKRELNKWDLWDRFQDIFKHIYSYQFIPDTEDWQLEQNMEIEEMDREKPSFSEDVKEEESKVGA

[5] = molecular target: T5, TAP-tagged wildtype Ioc4 in yeast (S. cerevisiae) (UniProt Q04213)
T5 sequence: T1 sequence with E149K, E150K

binding [1]: binds
binding [2]: binds
binding [3]: binds
binding [4]: binds
binding [5]: binds
Substance: Isw1 (from UniProt P38144 1-1129) (enzyme)
